In patent US12451250B2, “Systems and methods for predicting therapeutic sensitivity” (Tempus AI, Inc., priority 2019, dated 2025):
At least one structure is not confirmed: it was looked up by name or label, or the drawing left a doubt.

System: gastric TO with high ERBB2 (HER2) amplification
Assay: label-free (neural network) tumor organoid drug screening assay
Format: cell-based, human

CN(C)C/C=C/C(=O)Nc1cc2c(Nc3ccc(F)c(Cl)c3)ncnc2cc1O[C@H]1CCOC1 [afatinib]
distribution of response among the TO populations (biopsy obtained during disease progression on anti-ERBB2 therapy): a subset of the organoid population exhibiting resistance
drug response identified by the network (high ERBB2 (HER2) amplification): response
